Values quoted from earlier work in patent US20110097405A1, “ESTRADIOL-CONTAINING DRUG DELIVERY SYSTEM” (Bayer Schering Pharma Aktiengesellschaft, priority 2008, published 2011).
At least one compound was matched to its structure with a doubt left.

Details: intranasal 300 μg/day; cited from earlier work

C[C@]12CC[C@@H]3c4ccc(O)cc4CC[C@H]3[C@@H]1CC[C@@H]2O [estradiol]
efficacy compared with oral administration of 2 mg/day of estradiol: as efficient as standard oral therapy
